The record followed here is publication PMC5752445, “Secretory leukocyte protease inhibitor (SLPI) as a potential target for inhibiting metastasis of triple-negative breast cancers” (Oncotarget, 2017).

Chains of the proteins cited; added tags and fusions are not shown. Lines headed by an entry give the natural chain unless they say otherwise; changes in a name come on top.
UniProt Q08050: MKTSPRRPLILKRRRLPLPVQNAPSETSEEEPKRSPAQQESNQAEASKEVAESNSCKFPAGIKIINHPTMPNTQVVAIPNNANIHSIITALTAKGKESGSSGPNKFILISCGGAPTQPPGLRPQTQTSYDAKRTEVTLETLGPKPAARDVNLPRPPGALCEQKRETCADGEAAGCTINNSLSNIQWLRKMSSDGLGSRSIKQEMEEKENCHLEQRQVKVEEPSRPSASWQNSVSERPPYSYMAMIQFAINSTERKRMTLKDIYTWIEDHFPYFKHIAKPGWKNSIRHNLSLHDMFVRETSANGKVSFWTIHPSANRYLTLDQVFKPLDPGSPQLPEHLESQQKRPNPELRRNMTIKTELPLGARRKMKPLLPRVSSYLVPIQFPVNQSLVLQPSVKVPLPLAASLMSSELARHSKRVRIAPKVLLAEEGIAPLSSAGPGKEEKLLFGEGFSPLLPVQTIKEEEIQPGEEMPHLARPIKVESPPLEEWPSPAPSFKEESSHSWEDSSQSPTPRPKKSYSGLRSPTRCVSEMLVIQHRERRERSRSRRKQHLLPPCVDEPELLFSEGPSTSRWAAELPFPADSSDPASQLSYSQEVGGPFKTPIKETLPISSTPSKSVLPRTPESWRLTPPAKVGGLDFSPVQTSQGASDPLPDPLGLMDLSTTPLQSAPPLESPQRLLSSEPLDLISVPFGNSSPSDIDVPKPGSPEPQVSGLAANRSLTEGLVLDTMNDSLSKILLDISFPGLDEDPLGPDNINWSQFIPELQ

Data set [1] concerns the target FoxM1 (UniProt Q08050). The experiment in a line: EMSA. The following applies: extract of cells not treated with SLPI, binding substantially lower than with SLPI; Thermo Fisher EMSA kit per manufacturer; antibody 1 h on ice; pH not stated; protein in an extract; label: biotin end label.
For data set [2], the target named is FoxM1 (UniProt Q08050). The experiment in a line: EMSA supershift. As to conditions: extract of SLPI-treated cells, FoxM1 antibody, blocked by unlabeled FoxM1 oligo; Thermo Fisher EMSA kit per manufacturer; antibody 1 h on ice; pH not stated; protein in an extract; label: biotin end label. In general terms: Mobility shift assays separate free from complexed probe on a gel.

The exact form of at least one protein or probe is not confirmed. Where cells or extracts were used, other partners may take part. For some assays here: The comparison behind a weaker result is the experiment's own reference, which may not be listed here.

In the case of “CTGTTCAAGATGGAGTCGCTCTGGTTC (double strand) [MMP2 promoter FoxM1 site probe]”, the binding result is recorded as “binds more weakly” with FoxM1 [1] and “binds” in the data set with FoxM1 [2].
